# From patent US20160201132A1, “GENE EXPRESSION BIOMARKERS OF LAQUINIMOD RESPONSIVENESS” (Teva Pharmaceutical Industries Ltd., priority 2013, published 2016)
# This continues a long series; more values of the same kind are listed elsewhere.
# Tested on: PBMC of RRMS patients
# Assay: Gene expression microarray analysis (HG-U133A-2) of PBMC from RRMS patients treated with LAQ, ancillary study to ALLEGRO
# Assay type: in vivo, human
# Settings: for Fold-Change (1.0 vs. 0.0): one month of treatment
# Source text: The goal of this ancillary study was to characterize gene expression changes and corresponding biological mechanisms induced in PBMC of RRMS patients by LAQ treatment. According to ALLEGRO clinical trial inclusion criteria, 25 patients were randomly assigned to receive LAQ (n=13, age 38.8±2.3 years, female/male ratio: 8/5) or placebo (n=12, age 37.2±3.4 years, female/male ratio: 8/4).
# Peripheral blood samples were obtained from RRMS patients at baseline before start of LAQ treatment or placebo, after 0, 1, 6 and 24 month of treatment (visit 0, 1, 6 and 7 according to ALLEGRO clinical trial protocol correspondently) for gene microarray analysis.
# Briefly, 1) Peripheral blood mononuclear cells (PBMC) were obtained from RRMS patients that participated in ALLEGRO and were treated daily with 0.6 mg LAQ or placebo. PBMC were subjected for gene expression analysis (HU-133A-2-Affymatrix arrays) at baseline and at 1 and 6 months of LAQ treatment; 2) Data was analyzed by Partek Genomics Solution software. Most informative genes (MIGs) were defined as those that differentiated between groups with p<0.01. Gene functional annotation, enrichment and pathway analysis were performed by Ingenuity software. For each time point, genes that changed in placebo group were excluded from further analysis; and 3) Verification of LAQ related mechanism was performed by Western blot.
# PBMC were extracted from 15 ml peripheral blood, separated by Ficoll-Hypaque gradient. Total RNA was extracted using both Trizol (Invitrogen, USA) and Phase-Lock-Gel columns (Eppendorf, Germany) including a DNase digestion step. RNA integrity was assessed by RNA Experion automated electrophoresis system (Bio-Rad Laboratories, Hercules, Calif.).
# Probe synthesis using 3 μg total RNA, hybridization, detection, and scanning was performed according to the standard Affymetrix, Inc. USA protocols; cDNA was synthesized using the Two-Cycle cDNA Synthesis Kit (Affymetrix, Inc., USA), and in-vitro transcription performed with the GeneChip IVT Labeling Kit (Affymetrix, Inc., USA). The biotin-labeled IVT-RNA was hybridized to HG-U133A-2 arrays containing 18,400 gene transcripts, each corresponding to 14,500 well-annotated human genes, washed in a GeneChip Fluidics Station 450 (Hewlett Packard, USA, GeneArray-™ scanner G2500A) and scanned according to the manufacturer's protocol (Affymetrix, Inc., USA).
# Data analysis was performed on Partek Genomics Solution software (www.partek.com; Partek Incorporated, St. Louis, Mo.). Expression values were computed from raw CEL files by applying the Robust Multi-Chip Average (RMA) background correction algorithm. RMA correction included: 1) values background correction; 2) quintile normalization; 3) log 2 transformation; and 4) median polish summarization. The ANOVA, Repeated Measures and correlation analysis implicated in Partek software ware applied to evaluate LAQ effects. Most informative genes MIGs were defined as those that differentiated between experimental groups with p<0.01. All p-values were calculated for False Discovery Rate (FDR) multiple test correction at p=0.05.
# Additionally, significance of individual genes was tested by parametric T-test and non parametric Mann-Whitney test using Bootstrapping approach based on repeated permutations of the data with 5% FDR for multiple testing.
# Gene functional annotation, enrichment, and pathway analyses to identify the leading biological pathways that operated under LAQ treatment were performed by Ingenuity Pathways Analysis software (www.ingenuity.com).
# ANOVA analysis was used to compare PBMC gene expression after 1, 6 or 24 month of LAQ treatment with baseline gene expression.
# For each time point inventors performed analysis source of variation in dataset. (FIG. 1). Age, gender and batch effects were considered as confounders regarding LAQ or Placebo related changes. For each time point genes associated with Placebo effect were evaluated and excluded from further analysis. […]
smiles,measurement,setting,value
"CCN(C(=O)c1c(O)c2c(Cl)cccc2n(C)c1=O)c1ccccc1 [LAQ, 5-chloro-N-ethyl-4-hydroxy-1-methyl-2-oxo-N-phenyl-1,2-dihydroquinoline-3-carboxamide]",Fold-Change (1.0 vs. 0.0),RFPL1 207934_at,−1.145
same,Fold-Change (1.0 vs. 0.0),RGS6 210270_at,−1.251
same,Fold-Change (1.0 vs. 0.0),RGS10 204319_s_at,−1.272
same,Fold-Change (4.0 vs. 0.0),"RHBDF2 expression, after six months of treatment",−1.213
same,Fold-Change (1.0 vs. 0.0),RNF11 208924_at,−1.381
same,Fold-Change (4.0 vs. 0.0),"RNF122 expression, after six months of treatment",−1.201
same,Fold-Change (1.0 vs. 0.0),RPA1 201529_s_at,−1.266
same,Fold-Change (4.0 vs. 0.0),"RREB1 expression, after six months of treatment",−1.219
same,Fold-Change (4.0 vs. 0.0),"RTDR1 expression, after six months of treatment",−1.206
same,Fold-Change (4.0 vs. 0.0),"SBF1 expression, after six months of treatment",−1.216
same,Fold-Change (4.0 vs. 0.0),"SCNN1B expression, after six months of treatment",−1.2182
same,Fold-Change (1.0 vs. 0.0),SEMA3E 206941_x_at,−1.141
same,Fold-Change (1.0 vs. 0.0),SEPT6 213666_at,−1.134
same,Fold-Change (4.0 vs. 0.0),"SERPINE1 expression, after six months of treatment",−1.22
same,Fold-Change (1.0 vs. 0.0),SF3B1 211185_s_at,−1.0809
same,Fold-Change (1.0 vs. 0.0),SH3TC2 219710_at,−1.228
same,Fold-Change (4.0 vs. 0.0),"SIGLEC8 expression, after six months of treatment",−1.197
same,Fold-Change (4.0 vs. 0.0),"SIX1 expression, after six months of treatment",−1.213
same,Fold-Change (4.0 vs. 0.0),"SLC1A3 expression, after six months of treatment",−1.205
same,Fold-Change (4.0 vs. 0.0),"SLC1A6 expression, after six months of treatment",−1.205
same,Fold-Change (4.0 vs. 0.0),"SLC4A3 expression, after six months of treatment",−1.221
same,Fold-Change (4.0 vs. 0.0),"SLC22A17 expression, after six months of treatment",−1.2
same,Fold-Change (4.0 vs. 0.0),"SLC23A2 expression, after six months of treatment",−1.22
same,Fold-Change (4.0 vs. 0.0),"SMCHD1 expression, after six months of treatment",−1.2201
same,Fold-Change (1.0 vs. 0.0),SMOX 210357_s_at,−1.407
same,Fold-Change (1.0 vs. 0.0),SNCA 211546_x_at,−1.351
same,Fold-Change (1.0 vs. 0.0),SNX13 215820_x_at,−1.187
same,Fold-Change (1.0 vs. 0.0),SPANXB1 /// SPANXB2 /// SPANXF1 220921_at,−1.169
same,Fold-Change (4.0 vs. 0.0),"SPANXC expression, after six months of treatment",−1.2054
same,Fold-Change (4.0 vs. 0.0),"SPOCK3 expression, after six months of treatment",−1.214
same,Fold-Change (4.0 vs. 0.0),"SST expression, after six months of treatment",−1.2007
same,Fold-Change (1.0 vs. 0.0),SSX2IP 203016_s_at,−1.361
same,Fold-Change (4.0 vs. 0.0),"ST8SIA5 expression, after six months of treatment",−1.206
same,Fold-Change (1.0 vs. 0.0),SUPT5H 201480_s_at,−1.103
same,Fold-Change (1.0 vs. 0.0),TBC1D1 214013_s_at,−1.218
same,Fold-Change (1.0 vs. 0.0),TEF 215673_at,−1.161
same,Fold-Change (4.0 vs. 0.0),"TEK expression, after six months of treatment",−1.214
same,Fold-Change (1.0 vs. 0.0),TF 220109_at,−1.122
same,Fold-Change (4.0 vs. 0.0),"TLE4 expression, after six months of treatment",−1.202
same,Fold-Change (4.0 vs. 0.0),"TMEM151B expression, after six months of treatment",−1.209
same,Fold-Change (1.0 vs. 0.0),TMSB15A 205347_s_at,−1.119
same,Fold-Change (4.0 vs. 0.0),"TNFRSF11A expression, after six months of treatment",−1.216
same,Fold-Change (1.0 vs. 0.0),TNNC2 205388_at,−1.212
same,Fold-Change (1.0 vs. 0.0),TPM1 206116_s_at,−1.496
same,Fold-Change (4.0 vs. 0.0),"TRIM3 expression, after six months of treatment",−1.202
same,Fold-Change (4.0 vs. 0.0),"TRIM15 expression, after six months of treatment",−1.203
same,Fold-Change (1.0 vs. 0.0),TSC22D1 215111_s_at,−1.614
same,Fold-Change (1.0 vs. 0.0),TSPAN32 220558_x_at,−1.156
same,Fold-Change (1.0 vs. 0.0),TUBA4A 212242_at,−1.256
same,Fold-Change (1.0 vs. 0.0),UBE2N 212751_at,−1.102
same,Fold-Change (4.0 vs. 0.0),"UCP3 expression, after six months of treatment",−1.199
same,Fold-Change (4.0 vs. 0.0),"UNKL expression, after six months of treatment",−1.2
same,Fold-Change (1.0 vs. 0.0),USP47 221518_s_at,−1.076
same,Fold-Change (4.0 vs. 0.0),"VGLL1 expression, after six months of treatment",−1.203
same,Fold-Change (4.0 vs. 0.0),"VPS45 expression, after six months of treatment",−1.204
same,Fold-Change (4.0 vs. 0.0),"WNT7A expression, after six months of treatment",−1.212
same,Fold-Change (1.0 vs. 0.0),XPNPEP1 208453_s_at,−1.191
same,Fold-Change (1.0 vs. 0.0),XPNPEP1 209045_at,−1.197
same,Fold-Change (1.0 vs. 0.0),ZBTB20 205383_s_at,−1.137
same,Fold-Change (1.0 vs. 0.0),ZBTB33 214631_at,−1.135
same,Fold-Change (4.0 vs. 0.0),"ZCCHC14 expression, after six months of treatment",−1.22
same,Fold-Change (4.0 vs. 0.0),"ZNF323 expression, after six months of treatment",−1.209
same,Fold-Change (4.0 vs. 0.0),"gene A4GALT, after six months of LAQ",−1.136
same,Fold-Change (4.0 vs. 0.0),"gene ABCA4, after six months of LAQ",−1.253
same,Fold-Change (4.0 vs. 0.0),"gene ABCA6, after six months of LAQ",−1.138
same,Fold-Change (4.0 vs. 0.0),"gene ABCC1, six months of treatment",−1.153
same,Fold-Change (4.0 vs. 0.0),"gene ABCF3, after six months of LAQ",−1.13
same,Fold-Change (4.0 vs. 0.0),gene ABHD6,−1.186
same,Fold-Change (4.0 vs. 0.0),"gene ABI3BP, PBMC, six months of LAQ treatment",−1.115
same,Fold-Change (4.0 vs. 0.0),gene ABO,−1.19
same,Fold-Change (4.0 vs. 0.0),"gene ACCN2, PBMC, six months of LAQ treatment",−1.115
same,Fold-Change (4.0 vs. 0.0),"gene ACE2, after six months of LAQ",−1.14
same,Fold-Change (4.0 vs. 0.0),"gene ACE, after six months of LAQ",−1.129
same,Fold-Change (4.0 vs. 0.0),gene ACRV1,−1.191
same,Fold-Change (4.0 vs. 0.0),"gene ACRV1, six months of treatment",−1.151
same,Fold-Change (4.0 vs. 0.0),"gene ACTN2, PBMC, six months of LAQ treatment",−1.122
same,Fold-Change (4.0 vs. 0.0),"gene ACTN2, after six months of LAQ",−1.143
same,Fold-Change (4.0 vs. 0.0),gene ACVR1B,−1.191
same,Fold-Change (4.0 vs. 0.0),"gene ADAM5P, six months of treatment",−1.1589
same,Fold-Change (4.0 vs. 0.0),"gene ADAM 18, six months of treatment",−1.155
same,Fold-Change (4.0 vs. 0.0),"gene ADAM22, after six months of LAQ",−1.247
same,Fold-Change (4.0 vs. 0.0),"gene ADAMTS7, PBMC, six months of LAQ treatment",−1.112
